# Data as given in PubChem BioAssay AID540276 (National Center for Advancing Translational Sciences (NCATS), 2011).
# Hit rate of the full screen: of about 300,000 compounds, about 5,400 (1.8%) were called active. Inconclusive results, whose numbers are uncertain, are shown with a selection of clear calls. Calls come from the whole dose curve; tested in HEK293 cells. A potency beside an inconclusive call is a rough fit, not a confirmed value.
# Assay: qHTS for inhibitors of binding or entry into cells for Marburg Virus
# Conditions: Marburg virus pseudotyped entry inhibition, cell reporter; series mostly up to 37.8 µM
# Potency is the fitted concentration of half-maximal effect.
row,Structure (SMILES),Potency
1,COc1ccc(-n2nc3c(N4CCC(C(=O)NCCc5ccccc5C)CC4)nnc(C)c3c2C)cc1,"inconclusive: 7.08 µM [inhibitor, partial curve, poor fit]"
2,COc1ccccc1CNC(=O)c1ccc(N(C)S(=O)(=O)c2ccc(C)cc2)cc1,inactive
3,O=C(O)CCNc1nc(-c2ccccc2)nc2ccccc12,"inconclusive: 12.6 µM [activator, partial curve, poor fit]"
4,Cc1ccc(-c2nc(Cl)nc3ccccc23)cc1,"inconclusive: 31.6 µM [inhibitor, single point]"
5,C=CCNC(=O)c1cc2c(=O)n3cccc(C)c3nc2s1,"inconclusive: 35.5 µM [activator, single point]"
6,CCCNS(=O)(=O)c1ccc(NC(=O)c2ccccn2)cc1,"inconclusive: 35.5 µM [inhibitor, single point]"
7,O=C(CN1CCN(c2cccc(C(F)(F)F)c2)CC1)N(C1CCCC1)C1CCS(=O)(=O)C1 (centres undefined),inactive
8,CCC(=O)NC1=C(NC(C)c2ccccc2)C(=O)c2ccccc2C1=O (centres undefined),inactive
9,N#Cc1c2n(cnc1=O)CCCCC2,inactive
10,COC(=O)c1ccc(C2/C(=C(\O)c3ccc(OC)c(C)c3)C(=O)C(=O)N2c2cc(C)on2)cc1 (centres undefined),"inconclusive: 12.6 µM [activator, single point]"
11,COC(=O)c1ccc(CSc2nc3ccccc3c(=O)n2Cc2ccco2)o1,"inconclusive: 13 µM [inhibitor, partial curve, poor fit]"
12,Cc1cc(=O)oc2cc(NC(=O)c3ccc(OC(F)F)cc3)ccc12,inactive
13,COc1ccccc1CNC(=O)COC(=O)c1cc(-c2ccco2)nc2ccccc12,inactive
14,Cc1cc(=O)oc2c1c(C)nn2-c1cccc(Cl)c1,"inconclusive: 1.58 µM [inhibitor, partial curve, poor fit]"
15,COc1cccc(NC(=O)c2cnc(SCC(=O)NCc3ccc4c(c3)OCO4)n(C)c2=O)c1,inactive
16,C=CCc1ccc(OCCOc2cccc3cccnc23)c(OC)c1,"inconclusive: 0.562 µM [inhibitor, partial curve, poor fit]"
17,Cc1ccc(CNC(=O)COc2ccc(S(=O)(=O)N3CCOCC3)cc2)cc1,inactive
18,Cc1ccc2c(=O)c(CN3CCCCCC3)c(C)[nH]c2c1C,"inconclusive: 35.5 µM [activator, single point]"
19,Cc1occc1-c1nc(-c2ccccn2)no1,active: 11.2 µM
20,CC1(C)CC(=O)C(C=NCC2CCN(C(=O)Cc3ccccc3)CC2)=C(O)C1,inactive
21,c1ccc(COc2ccccc2CNC23CC4CC(CC(C4)C2)C3)cc1,"inconclusive: 2 µM [inhibitor, full curve, poor fit]"
22,CN(C)CCNC(=O)c1cccc2ccc(-c3ccc(-c4ccccc4)cc3)nc12,"inconclusive: 35.5 µM [inhibitor, single point]"
23,CSC(=NC#N)N1CCN(c2cccc(Cl)c2)CC1,inactive
24,Cc1sc2ncnc(NCC(O)c3ccc([N+](=O)[O-])cc3)c2c1C (centres undefined),"inconclusive: 7.94 µM [inhibitor, partial curve, poor fit]"
25,O=C1CC(c2ccccc2)CC(O)=C1C=NCCN1CCN(Cc2ccccc2)CC1 (centres undefined),"inconclusive: 17.8 µM [inhibitor, single point]"

row,Structure (SMILES),Potency
1,CCC(CO)Nc1ncnc2onc(-c3ccc(F)cc3)c12 (centres undefined),inactive
2,O=c1c2c3c(sc2nnn1CCCCOc1ccc(Cl)cc1)CCCC3,inactive
3,C/C(=N\NC(=O)COc1ccc(C(C)(C)C)cc1)c1ccc(N2CCOCC2)cc1,inactive
4,O=C(c1ccccc1)c1nn(-c2ccccc2)c(=O)cc1C(F)(F)F,"inconclusive: 20 µM [inhibitor, single point]"
5,CCOCCCN(C)C1CCN(C(=O)c2oc3ccccc3c2NC(=O)c2ccc([N+](=O)[O-])cc2)CC1,"inconclusive: 35.5 µM [inhibitor, single point]"
6,CC12CCC(C(=O)n3c1nc1ccccc13)C2(C)C (centres undefined),inactive
7,S=c1[nH]nc(Nc2cccc(Cl)c2)s1,"inconclusive: 1.3 µM [activator, full curve, poor fit]"
8,COc1ccc(CCNC(=O)c2ccncc2)cc1OC,inactive
9,CCCN(CCC)Cc1c(C(=O)N/N=C/C(C)=C\c2ccco2)nnn1-c1nonc1N,active: 4.47 µM
10,CSc1ccc(Cc2ccc(Cl)cc2Cl)nn1,"inconclusive: 29.1 µM [activator, single point]"
11,Cc1ccc(-c2nnc(NC(=O)CCS(=O)(=O)c3ccc(F)cc3)o2)c(C)c1,"inconclusive: 0.355 µM [activator, single point]"
12,Cc1nc2cc3ccccc3cc2c(=O)[nH]1,"inconclusive: 2.31 µM [activator, partial curve, poor fit]"
13,Cc1[nH]c2ccccc2c1/C=N/NC(=O)c1cccc([N+](=O)[O-])c1,inactive
14,CCCOc1c(Cl)cc(/C=N/O)cc1OCC,inactive
15,COc1ccc(C(=O)N2CC3(C)CC2CC(C)(C)C3)cc1 (centres undefined),inactive
16,CC(=O)NCc1ccc(S(=O)(=O)N/N=C/c2ccc(Br)cc2)cc1,"inconclusive: 35.5 µM [inhibitor, single point]"
17,O=C(Nc1ccnn1C1CCN(C(=O)c2ccc(F)cc2)CC1)C1CCOC1 (centres undefined),inactive
18,CCCCN1C(C(=O)c2ccccc2)=C(OC(=O)CC)c2ccccc2S1(=O)=O,active: 7.94 µM
19,Cc1cc(-n2c(C)cc(C(=O)CN3C(=O)NC4(CCCCC4C)C3=O)c2C)no1 (centres undefined),inactive
20,COC(=O)c1ccc(NC(=O)CN(c2ccc(OC)cc2)S(C)(=O)=O)cc1,inactive
21,COc1cccc(CN(C)CC(=O)Nc2cccc(S(=O)(=O)N(C)c3ccccc3)c2)c1OC,"inconclusive: 14.1 µM [inhibitor, single point]"
22,CCCn1c(SCC(=O)NCc2ccccc2)n[nH]c1=O,inactive
23,C=CCOc1ccc(/C=C2\SC(=S)N(NS(=O)(=O)c3ccc(C)cc3)C2=O)cc1,"inconclusive: 5.62 µM [activator, full curve, poor fit]"
24,O=c1c2sc3ccccc3c2n(Cc2cccc(Cl)c2)c(=O)n1Cc1ccc(F)cc1,"inconclusive: 3.16 µM [inhibitor, single point]"
25,Cc1ccccc1CN1C(=O)C(O)(c2c[nH]c3ccccc23)c2cc(Cl)ccc21 (centres undefined),active: 8.91 µM

# Exported as tab-separated lines: four of the compounds above
row	Structure (SMILES)	Potency
20	COC(=O)c1ccc(NC(=O)CN(c2ccc(OC)cc2)S(C)(=O)=O)cc1	inactive
21	COc1cccc(CN(C)CC(=O)Nc2cccc(S(=O)(=O)N(C)c3ccccc3)c2)c1OC	inconclusive: 14.1 µM [inhibitor, single point]
22	CCCn1c(SCC(=O)NCc2ccccc2)n[nH]c1=O	inactive
23	C=CCOc1ccc(/C=C2\SC(=S)N(NS(=O)(=O)c3ccc(C)cc3)C2=O)cc1	inconclusive: 5.62 µM [activator, full curve, poor fit]

# Continuation:

row,Structure (SMILES),Potency
1,Cc1nc2cc(C(F)(F)F)ccc2n1C1CCN(Cc2nnnn2CCc2ccccc2)CC1,"inconclusive: 22.4 µM [inhibitor, single point]"
2,CCOC(=O)C1(Cc2cccc(OC)c2)CCN(C(C)CC(C)(C)O)CC1 (centres undefined),"inconclusive: 35.5 µM [inhibitor, single point]"
3,Cc1cccc(N2CCN(S(=O)(=O)c3ccc4c(c3)C(C)(C)C(=O)N4C)CC2C)c1 (centres undefined),"inconclusive: 35.5 µM [inhibitor, single point]"
4,COc1ccc(NC(=O)/C(C#N)=C/c2ccc(OCc3ccccc3F)cc2)cc1,"inconclusive: 5.62 µM [activator, single point]"
5,Cc1cc(/C(N)=N/OC(=O)c2ccc(Cl)cc2)no1,"inconclusive: 20 µM [activator, single point]"
6,Cc1cc(C)n2nc(SC(C)C(=O)N3CCC4(CC3)OCCO4)nc2n1 (centres undefined),inactive
7,O=S(=O)(Nc1ccccn1)c1cccc(S(=O)(=O)c2ccc(Br)cc2)c1,"inconclusive: 7.94 µM [inhibitor, partial curve]"
8,CCOC(=O)N1CCN(S(=O)(=O)CCNC(=O)c2ccccc2)CC1,inactive
9,CC(C)OCCCNC(=O)C1CCC(=O)N1C1CCCC1 (centres undefined),inactive
10,CC(C)c1ccc(NC(=O)CSc2nnc(-c3ccccn3)n2C)cc1,inactive
11,CC(=O)N1CCOCCOCCN(C(C)=O)CCOCCOCC1,inactive
12,CC(CSc1n[nH]c(=S)s1)c1ccccc1 (centres undefined),"inconclusive: 7.08 µM [activator, partial curve, poor fit]"
13,Cc1ccc(C)c(N2CCN(C3CCCC(C)C3)CC2)c1 (centres undefined),active: 5.01 µM
14,O=C(Nc1cccc(C(F)(F)F)c1)c1ccc2nc(-c3ccco3)c(-c3ccco3)nc2c1,inactive
15,COc1ccc(OC)c(Nc2nc(NCCO)c3ccccc3n2)c1,"inconclusive: 17.8 µM [inhibitor, single point]"
16,Cc1ccc(S(=O)(=O)NCCCNc2ccc([N+](=O)[O-])cc2)cc1,"inconclusive: 35.5 µM [inhibitor, single point]"
17,Cc1ccccc1NC(=O)NC1CCS(=O)(=O)C1 (centres undefined),"inconclusive: 35.5 µM [activator, single point]"
18,COc1ccc(S(=O)(=O)N2CCN(CCC(=O)Nc3ccc(F)cc3)CC2)cc1,"inconclusive: 35.5 µM [inhibitor, single point]"
19,CNC(=S)N1N=C(c2ccccc2)CC1c1ccc(Br)cc1 (centres undefined),"inconclusive: 13 µM [inhibitor, partial curve, poor fit]"
20,COc1cc2ccccc2cc1C(=O)Nc1ccc(N2CCN(C)CC2)cc1,"inconclusive: 5.17 µM [inhibitor, single point]"
21,Cc1c(C)c(C)c(S(=O)(=O)N2CCNCC2)c(C)c1C,"inconclusive: 35.5 µM [inhibitor, partial curve, poor fit]"
22,CN1C(=O)/C(=C\c2cc(Br)cs2)c2ccccc21,"inconclusive: 12.6 µM [activator, partial curve, poor fit]"
23,O=S(=O)(c1ccc(NC(=S)Nc2ccccc2)cc1)N1CCOCC1,inactive
24,CCCC(NC(=O)c1ccccc1)c1nc2ccccc2n1Cc1ccc(C(=O)OC)o1 (centres undefined),"inconclusive: 25.1 µM [inhibitor, single point]"
